Structures can show the parent of a compound that is named as a salt. Some of the results follow. Baselines shift from plate to plate; read single values as rough.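 Biofilm, quantified by the absorbance of well-retained crystal violet, is assayed using the K-12 laboratory model grown unshaken in 96-well plates. Candidate specific biofilm inhibitors were drugs that sharply lowered staining yet reduced free-floating growth by less than 70%.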

In the assay the test system is Escherichia coli W3110. The assay is described as follows: biofilm formation (crystal violet staining) relative to untreated control; higher = more biofilm. Conditions: 10 µM; 20-24 h; 30 °C; TB.
As to `Nc1ccc(S(=O)(=O)c2ccc(N)cc2)cc1` [Dapsone], the biofilm formation came to 42%. Compound `OCCN1CCN(CCCN2c3ccccc3Sc3ccc(Cl)cc32)CC1` [Perphenazine] showed a biofilm formation of 54%. Take `CN(C)CCc1c[nH]c2ccc(Cn3cncn3)cc12` [Rizatriptan benzoate]: the biofilm formation was 72%. As to `CC1(C)OC(=O)NC1=O` [Dimethadione], the biofilm formation amounted to 79%. In the case of `N=C(N)NCC1COC2(CCCCC2)O1` (configuration not stated) [Guanadrel sulfate], the biofilm formation came to 65%. The value for `CCC[C@H](N[C@@H](C)C(=O)N1[C@H](C(=O)O)C[C@@H]2CCCC[C@@H]21)C(=O)OCC` [Perindopril] was 80%.

`COc1ccc(NS(=O)(=O)c2ccc(N)cc2)nn1` [Sulfamethoxypyridazine] came in with a biofilm formation of 43%.

In turn, `Nc1ccc(C(=O)NCC(=O)O)cc1` [Aminohippuric acid] showed a biofilm formation of 48%. `CO[C@@H]1[C@@H](OC(N)=O)[C@@H](O)[C@H](Oc2ccc3c(O)c(NC(=O)c4ccc(O)c(CC=C(C)C)c4)c(=O)oc3c2C)OC1(C)C` [Novobiocin sodium salt] came in with a biofilm formation of 57%. Regarding `CCN1CCN(C(=O)N[C@@H](C(=O)N[C@@H]2C(=O)N3[C@@H]2SC(C)(C)[C@@H]3C(=O)O)c2ccccc2)C(=O)C1=O` [Piperacillin sodium salt], the biofilm formation was found to be 15%. The value for `CN(C)CCC[C@@]1(c2ccc(F)cc2)OCc2cc(C#N)ccc21` [Escitalopram oxalate] was 77%; that for `CCCC(=O)Nc1ncnc2c1ncn2[C@@H]1O[C@@H]2COP(=O)(O)O[C@H]2[C@H]1OC(=O)CCC` [Bucladesine sodium salt] was 63%. `CN1CCCC(n2nc(Cc3ccc(Cl)cc3)c3ccccc3c2=O)CC1` (configuration not stated) [Azelastine hydrochloride] had a biofilm formation of 59%. For the compound `CN1CCCCC1CCN1c2ccccc2Sc2ccc([S+](C)[O-])cc21` (configuration not stated) [Mesoridazine besylate], the biofilm formation worked out at 75%. For `NC(=O)N/N=C/c1ccc([N+](=O)[O-])o1` [Nitrofural], the biofilm formation was determined as 67%.

`O=c1oc2ccccc2c(O)c1Cc1c(O)c2ccccc2oc1=O` [Dicumarol]: the biofilm formation is 59%. The compound `CN1CCN(CCCN2c3ccccc3Sc3ccc(Cl)cc32)CC1` [Prochlorperazine dimaleate] gave a biofilm formation of 78%. For `Cc1nc(=O)c2cc(CN(C)c3ccc(C(=O)N[C@@H](CCC(=O)O)C(=O)O)s3)ccc2[nH]1` [Raltitrexed], the biofilm formation was determined as 93%.

In turn, `CN1CCN(c2c(F)cc3c(=O)c(C(=O)O)cn(CCF)c3c2F)CC1` [Fleroxacin] had a biofilm formation of 15%. `C[C@H](CCC(=O)O)[C@H]1CC[C@H]2[C@@H]3[C@H](O)C[C@@H]4C[C@H](O)CC[C@]4(C)[C@H]3CC[C@]12C` [Chenodiol]: the biofilm formation turned out to be 57%. Compound `CC(=O)OCC(CCn1cnc2cnc(N)nc21)COC(C)=O` [Famciclovir] registered a biofilm formation of 106%. The value for `NNc1nncc2ccccc12` [Hydralazine hydrochloride] was 78%; that for `COc1c2occc2c(OC)c2c(=O)cc(C)oc12` [Khellin] was 94%; that for `Nc1cc(C(Cl)=C(Cl)Cl)c(S(N)(=O)=O)cc1S(N)(=O)=O` [Clorsulon] was 88%. In the case of `CC[C@H](C)C(=O)O[C@H]1CCC=C2C=C[C@H](C)[C@H](CC[C@@H]3C[C@@H](O)CC(=O)O3)[C@H]21` [Mevastatin], the biofilm formation was found to be 87%. For the compound `Cc1c(N(C)CS(=O)(=O)O)c(=O)n(-c2ccccc2)n1C` [Dipyrone], the biofilm formation amounted to 86%.

For `CC(NCCC(c1ccccc1)c1ccccc1)c1ccccc1` (configuration not stated) [Fendiline hydrochloride], the biofilm formation was 70%.

Take `O=c1[nH]c(=O)n(C2CCCO2)cc1F` (configuration not stated) [Tegafur]: the biofilm formation was determined as 71%.

In turn, `CCN(CC)CCc1nc(-c2ccccc2)no1` [Oxalamine citrate salt] gave a biofilm formation of 63%. `CNCC(O)c1ccc(OC(=O)C(C)(C)C)c(OC(=O)C(C)(C)C)c1` (configuration not stated) [Dipivefrin hydrochloride] had a biofilm formation of 97%. On to `CC(C)NCC(O)c1ccc(O)c(O)c1` (single isomer, unassigned; (+)) [(+)-Isoproterenol (+)-bitartrate salt], for which the biofilm formation was found to be 59%. Under `CC(C)NC[C@@H](O)COc1cccc2ccccc12` [(R)-Propranolol hydrochloride] stands 57%. As for `CCCNCC(O)COc1ccccc1C(=O)CCc1ccccc1` (configuration not stated) [Propafenone hydrochloride], the biofilm formation stood at 81%.

In turn, `NC(=O)C(c1ccccc1)(c1ccccc1)[C@@H]1CCN(CCc2ccc3c(c2)CCO3)C1` [Darifenacin hydrobromide] returned a biofilm formation of 92%. On to `COc1ccccc1OCC(O)CN1CCN(CC(=O)Nc2c(C)cccc2C)CC1` (configuration not stated) [Ranolazine], for which the biofilm formation was found to be 80%. The compound `COc1cc([C@@H]2c3cc4c(cc3[C@@H](O[C@@H]3O[C@@H]5CO[C@@H](C)O[C@H]5[C@H](O)[C@H]3O)[C@H]3COC(=O)[C@H]23)OCO4)cc(OC)c1O` [Etoposide] yielded a biofilm formation of 66%. For `C[C@H]1C[C@@H]2[C@H]([C@@H](O)C[C@@]3(C)[C@H]2CC[C@]3(O)C(=O)CO)[C@@]2(C)C=CC(=O)C=C12` [Methylprednisolone, 6-alpha], the biofilm formation is 45%. Turning to `CC(C)NCC(O)c1ccc2ccccc2c1` (configuration not stated) [Pronethalol hydrochloride], the biofilm formation was 73%. For the compound `Nc1nc2n[nH]nc2c(=O)[nH]1` [Azaguanine-8], the biofilm formation was 85%. For `CN(C)c1nc(N(C)C)nc(N(C)C)n1` [Altretamine], the biofilm formation is 64%. The value for `O=C1OCCN1/N=C/c1ccc([N+](=O)[O-])o1` [Furazolidone] was 58%; that for `O=S(=O)(O)c1cc(O)ccc1O` [Ethamsylate] was 60%. For `c1ccc([C@H]2CN3CCSC3=N2)cc1` [Levamisole hydrochloride], the biofilm formation turned out to be 63%. Take `CCC(=O)O[C@]1(C(=O)CCl)[C@@H](C)C[C@H]2[C@@H]3CCC4=CC(=O)C=C[C@]4(C)[C@@]3(F)[C@@H](O)C[C@@]21C` [Clobetasol propionate]: the biofilm formation amounted to 83%. Under `Cc1cc(CC(=O)O)n(C)c1C(=O)c1ccc(Cl)cc1` [Zomepirac sodium salt] stands 73%; under `CC1Cc2ccccc2N1NC(=O)c1ccc(Cl)c(S(N)(=O)=O)c1` (configuration not stated) [Indapamide], 85%. In turn, `O=C(NCC(O)CO)c1c(I)c(C(=O)NCC(O)CO)c(I)c(N(CCO)C(=O)CO)c1I` (configuration not stated) [Ioversol] displayed a biofilm formation of 73%.

Regarding `CO/N=C(\C(=O)N[C@@H]1C(=O)N2C(C(=O)O)=C(COC(N)=O)CS[C@H]12)c1ccco1` [Cefuroxime sodium salt], the biofilm formation was 6%. The value for `Nc1ccc(S(=O)(=O)Nc2ccnn2-c2ccccc2)cc1` [Sulfaphenazole] was 47%; that for `C[C@H](O)C(=O)Nc1c(I)c(C(=O)NC(CO)CO)c(I)c(C(=O)NC(CO)CO)c1I` [Iopamidol] was 101%; that for `CC(C)CC(=O)N[C@H](C(=O)N[C@H](C(=O)N[C@@H](CC(C)C)[C@@H](O)CC(=O)N[C@@H](C)C(=O)N[C@@H](CC(C)C)[C@@H](O)CC(=O)O)C(C)C)C(C)C` [Pepstatin A] was 85%.

On to `CC[C@H]1OC(=O)[C@H](C)[C@@H](O[C@H]2C[C@@](C)(OC)[C@@H](O)[C@H](C)O2)[C@H](C)[C@@H](O[C@@H]2O[C@H](C)C[C@H](N(C)C)[C@H]2O)[C@](C)(O)C[C@@H](C)[C@@H]2N[C@@H](COCCOC)O[C@H]([C@H]2C)[C@]1(C)O` [Dirithromycin], for which the biofilm formation came out at 69%. Regarding `O=C1CC2(CCCC2)CC(=O)N1CCCCN1CCN(c2ncccn2)CC1` [Buspirone hydrochloride], the biofilm formation came to 114%.

In turn, `O=C(O)/C=C/c1ccc(Cn2ccnc2)cc1` [Ozagrel hydrochloride] had a biofilm formation of 76%. With `CCCc1nc(C)c2c(=O)nc(-c3cc(S(=O)(=O)N4CCN(CC)CC4)ccc3OCC)[nH]n12` [Vardenafil], the biofilm formation worked out at 56%. Under `CCn1nc(C(=O)O)c(=O)c2cc3c(cc21)OCO3` [Cinoxacin] stands 31%; under `Cc1cc(/C=C/c2ccc3cc(N(C)C)ccc3[n+]2C)c(C)n1-c1ccccc1` [Pyrvinium pamoate], 66%; under `COCCOC(=O)C1=C(C)NC(C)=C(C(=O)OC/C=C/c2ccccc2)C1c1cccc([N+](=O)[O-])c1` (configuration not stated) [Cilnidipine], 81%. The compound `CCCCNc1ccc(C(=O)OCCOCCOCCOCCOCCOCCOCCOCCOCCOC)cc1` [Benzonatate] displayed a biofilm formation of 74%. Under `C=C1/C(=C\C=C2/CCC[C@]3(C)[C@@H]([C@H](C)/C=C/[C@@H](O)C4CC4)CC[C@@H]23)C[C@@H](O)C[C@@H]1O` [Calcipotriene] stands 67%; under `Cc1ccc(Cl)c(Nc2ccccc2C(=O)O)c1Cl` [Meclofenamic acid sodium salt monohydrate], 57%; under `O=C(NCCO[N+](=O)[O-])c1cccnc1` [Nicorandil], 47%. The compound `COC(=O)Nc1nc2ccc(SC(C)C)cc2[nH]1` [Methiazole] showed a biofilm formation of 67%. With `CN(C)CCOc1ccc(/C(=C(/CCCl)c2ccccc2)c2ccccc2)cc1` [Toremifene], the biofilm formation came to 65%. The value for `CCN1CCN(C(=O)N[C@@H](C(=O)N[C@@H]2C(=O)N3C(C(=O)O)=C(CSc4nnnn4C)CS[C@H]23)c2ccc(O)cc2)C(=O)C1=O` [Cefoperazone dihydrate] was 8%; that for `CC(C(=O)O)c1ccc(N2Cc3ccccc3C2=O)cc1` (configuration not stated) [Indoprofen] was 68%; that for `CC1=Nc2ccc(Cl)cc2S(=O)(=O)N1` [Diazoxide] was 54%. On to `Oc1ccc(OCc2ccccc2)cc1` [Monobenzone], for which the biofilm formation stood at 60%. For the compound `C[C@H]1C[C@H]2[C@@H]3CCC4=CC(=O)C=C[C@]4(C)[C@@]3(F)[C@@H](O)C[C@]2(C)[C@@]1(O)C(=O)CO` [Betamethasone], the biofilm formation was 53%.

Take `Cc1nnc(NS(=O)(=O)c2ccc(N)cc2)s1` [Sulfamethizole]: the biofilm formation was 34%. Under `CCN1CCC[C@H]1CNC(=O)c1c(OC)ccc(Br)c1OC` [Remoxipride Hydrochloride] stands 93%; under `CCN1CCN(c2cc3c(cc2F)c(=O)c(C(=O)O)cn3C2CC2)CC1` [Enrofloxacin], 15%.

For the origin of these results see the supplement of paper PMC7580552.
